No constants are given. Whether binding was seen depends on the method and setting. Binding seen in cells or lysates may run through a third protein. Some binding calls cover weakened binding; strength is not graded here.
Target: apoptosis signal-regulating kinase 1 (ASK1) (human (endogenous in H1299)) (UniProt Q99683)
Assay: co-IP; H1299 cells treated without or with 5 uM PPE8 for 2 h; 500 ug lysate (50 mM Tris pH 7.2, 150 mM NaCl, 1 mM EDTA, 1% triton X-100) incubated with 2 ug ASK1 antibody and affinity ligand overnight at 4 C (catch and release system); eluate blotted with IRE1 antibody

Sequences of proteins named here, by UniProt entry; tags and fusion partners are left off. Residues count along the entry.
UniProt Q99683: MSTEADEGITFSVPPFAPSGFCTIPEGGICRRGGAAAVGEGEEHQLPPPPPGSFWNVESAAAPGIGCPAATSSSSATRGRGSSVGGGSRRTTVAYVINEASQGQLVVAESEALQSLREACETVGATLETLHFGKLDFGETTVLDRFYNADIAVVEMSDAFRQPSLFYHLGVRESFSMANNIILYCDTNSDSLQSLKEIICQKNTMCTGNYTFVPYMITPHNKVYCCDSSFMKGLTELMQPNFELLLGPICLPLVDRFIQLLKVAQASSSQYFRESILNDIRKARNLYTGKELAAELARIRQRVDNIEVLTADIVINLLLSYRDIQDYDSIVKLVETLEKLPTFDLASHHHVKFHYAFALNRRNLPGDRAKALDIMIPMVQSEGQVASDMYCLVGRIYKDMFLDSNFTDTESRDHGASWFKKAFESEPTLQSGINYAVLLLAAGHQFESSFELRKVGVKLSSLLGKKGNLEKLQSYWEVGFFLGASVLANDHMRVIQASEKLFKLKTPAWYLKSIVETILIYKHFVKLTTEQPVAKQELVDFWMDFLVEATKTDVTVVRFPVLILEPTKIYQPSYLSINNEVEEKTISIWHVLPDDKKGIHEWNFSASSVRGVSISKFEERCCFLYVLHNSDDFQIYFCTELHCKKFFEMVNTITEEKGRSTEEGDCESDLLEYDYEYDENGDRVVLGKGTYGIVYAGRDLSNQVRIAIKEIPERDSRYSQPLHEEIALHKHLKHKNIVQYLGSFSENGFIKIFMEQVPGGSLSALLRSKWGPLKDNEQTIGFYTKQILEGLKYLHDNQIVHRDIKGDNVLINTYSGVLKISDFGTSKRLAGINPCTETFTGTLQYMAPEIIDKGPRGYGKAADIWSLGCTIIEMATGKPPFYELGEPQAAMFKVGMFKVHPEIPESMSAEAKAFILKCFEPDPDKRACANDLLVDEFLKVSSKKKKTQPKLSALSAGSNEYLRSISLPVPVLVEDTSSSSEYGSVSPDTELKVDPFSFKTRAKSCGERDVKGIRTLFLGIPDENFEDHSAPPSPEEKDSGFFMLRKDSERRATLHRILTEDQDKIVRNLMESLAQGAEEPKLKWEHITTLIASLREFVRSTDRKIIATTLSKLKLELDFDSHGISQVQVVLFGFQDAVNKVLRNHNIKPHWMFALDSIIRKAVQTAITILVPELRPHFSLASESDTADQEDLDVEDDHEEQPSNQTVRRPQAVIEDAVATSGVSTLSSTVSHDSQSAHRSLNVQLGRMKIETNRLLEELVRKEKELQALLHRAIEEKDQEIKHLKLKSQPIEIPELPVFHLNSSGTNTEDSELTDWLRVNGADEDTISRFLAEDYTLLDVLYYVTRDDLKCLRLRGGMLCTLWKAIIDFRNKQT
UniProt O75460, residues 19-977: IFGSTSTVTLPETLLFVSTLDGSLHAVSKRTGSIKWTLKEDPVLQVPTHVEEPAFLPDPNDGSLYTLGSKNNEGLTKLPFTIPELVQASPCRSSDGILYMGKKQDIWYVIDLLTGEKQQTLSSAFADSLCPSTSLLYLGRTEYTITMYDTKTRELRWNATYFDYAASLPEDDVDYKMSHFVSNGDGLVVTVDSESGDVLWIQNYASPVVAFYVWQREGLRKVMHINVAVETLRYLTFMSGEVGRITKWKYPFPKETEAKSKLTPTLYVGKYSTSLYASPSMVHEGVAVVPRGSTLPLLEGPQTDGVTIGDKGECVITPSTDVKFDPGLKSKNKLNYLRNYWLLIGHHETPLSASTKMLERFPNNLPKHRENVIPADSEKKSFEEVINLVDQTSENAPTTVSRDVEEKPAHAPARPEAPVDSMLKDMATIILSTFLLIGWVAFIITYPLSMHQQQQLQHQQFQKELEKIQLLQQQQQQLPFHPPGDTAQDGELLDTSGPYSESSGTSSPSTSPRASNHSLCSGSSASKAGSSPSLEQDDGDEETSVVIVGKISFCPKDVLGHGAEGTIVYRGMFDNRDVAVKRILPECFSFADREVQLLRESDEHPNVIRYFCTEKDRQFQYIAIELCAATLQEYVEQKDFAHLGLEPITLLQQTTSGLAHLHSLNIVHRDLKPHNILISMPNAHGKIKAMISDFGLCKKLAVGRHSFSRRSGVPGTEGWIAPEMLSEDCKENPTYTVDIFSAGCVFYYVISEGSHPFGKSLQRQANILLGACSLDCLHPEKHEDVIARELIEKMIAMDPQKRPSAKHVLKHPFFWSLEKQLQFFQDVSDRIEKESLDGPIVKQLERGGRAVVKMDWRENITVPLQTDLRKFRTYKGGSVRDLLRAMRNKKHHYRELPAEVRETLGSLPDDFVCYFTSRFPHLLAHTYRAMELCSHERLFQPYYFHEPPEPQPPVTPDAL

- binding: binds
Substance: inositol-regulating enzyme 1 (IRE1) (from UniProt O75460 19-977)

Reference: paper PMC4313521
